Values from PubChem BioAssay AID743454 (Peter MacCallum Cancer Centre, 2014)
This is one part, drawn at random, of about 18,000 reagents tested. 450 of them (2.5%) count as active. 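Single biological run; no consistent viability z cut-off exists, so the class columns, not z-scores, define the calls.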 Unmarked entries are inactive. Reagent sequences are not shown.

- Aim: 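Knock-downs lowering viability or raising caspase 3/7 activity in vorinostat-treated resistant cells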 (primary screen)
- Cell system: human HCT116-VR colon cancer cells, selected for vorinostat resistance
- Knock-down reagent: siRNA pool against human genes, 40 nM siRNA pool
- Duration: vorinostat for 24 h, read-out about 72 h after transfection
- Treatment: vorinostat at 2.5 µM final
- Measurement: 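Cell viability by CellTiter-Fluor and caspase 3/7 activity by luminescence, each scaled to mock wells per plate, duplicates averaged, then robust z-scored over all plates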
- Direction: viability robust z-score: higher = more viable cells than screen typical; caspase robust z-score: higher = more caspase 3/7 activity than screen typical
- Hit rule: 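Hits are knock-downs in viability class RV1/RV2 or caspase class CA1/CA2, excluding ones that killed cells in the no-drug cell-count arm; hits then retested with single siRNAs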

{"Target gene": "CALML5 (calmodulin like 5)", "PubChem SID": "SID134317627", "viability hit class": "no change", "caspase hit class": "no change", "viability robust z-score": -0.1, "caspase robust z-score": 0.04}
{"Target gene": "PCDHA7 (protocadherin alpha 7)", "PubChem SID": "SID134317486", "viability hit class": "no change", "caspase hit class": "no change", "viability robust z-score": -0.85, "caspase robust z-score": -0.61}
{"Target gene": "RGS7BP (regulator of G protein signaling 7 binding protein)", "PubChem SID": "SID152153534", "viability hit class": "no change", "caspase hit class": "no change", "viability robust z-score": 0.02, "caspase robust z-score": 2.67}
{"Target gene": "ARHGAP28 (Rho GTPase activating protein 28)", "PubChem SID": "SID135624950", "viability hit class": "no change", "caspase hit class": "no change", "viability robust z-score": -1.4, "caspase robust z-score": 0.03}
{"Target gene": "PTPDC1 (protein tyrosine phosphatase domain containing 1)", "PubChem SID": "SID134313451", "viability hit class": "no change", "caspase hit class": "no change", "viability robust z-score": -1.32, "caspase robust z-score": 1.05}
{"Target gene": "CISD2 (CDGSH iron sulfur domain 2)", "PubChem SID": "SID152155286", "viability hit class": "no change", "caspase hit class": "no change", "viability robust z-score": -1.16, "caspase robust z-score": 2.75}
{"Target gene": "CRMA (cardiomyocyte maturation associated lncRNA)", "PubChem SID": "SID134321040", "viability hit class": "no change", "caspase hit class": "no change", "viability robust z-score": 0, "caspase robust z-score": -0.76}
{"Target gene": "ENPP5", "PubChem SID": "SID134314516", "viability hit class": "no change", "caspase hit class": "no change", "viability robust z-score": -1.86, "caspase robust z-score": 3.36}
{"Target gene": "SGO2 (shugoshin 2)", "PubChem SID": "SID152149393", "viability hit class": "no change", "caspase hit class": "no change", "viability robust z-score": 0.89, "caspase robust z-score": 0.12}
{"Target gene": "MILR1 (mast cell immunoglobulin like receptor 1)", "PubChem SID": "SID152151473", "viability hit class": "no change", "caspase hit class": "no change", "viability robust z-score": -1.44, "caspase robust z-score": 0.08}

Only “viability hit class” (2 entries from above):
CISD2 (CDGSH iron sulfur domain 2) [SID152155286]: no change
CRMA (cardiomyocyte maturation associated lncRNA) [SID134321040]: no change

Next entries follow.
{"Target gene": "LYN (LYN proto-oncogene, Src family tyrosine kinase)", "PubChem SID": "SID135620625", "viability hit class": "no change", "caspase hit class": "no change", "viability robust z-score": -0.9, "caspase robust z-score": -0.41}
{"Target gene": "ZBTB16 (zinc finger and BTB domain containing 16)", "PubChem SID": "SID152146990", "viability hit class": "no change", "caspase hit class": "no change", "viability robust z-score": -1.95, "caspase robust z-score": 2.21}
{"Target gene": "F13B (coagulation factor XIII B chain)", "PubChem SID": "SID152154096", "viability hit class": "no change", "caspase hit class": "no change", "viability robust z-score": -0.1, "caspase robust z-score": 1.26}
{"Target gene": "EDA (ectodysplasin A)", "PubChem SID": "SID135620716", "viability hit class": "no change", "caspase hit class": "no change", "viability robust z-score": 1.52, "caspase robust z-score": 1.99}
{"Target gene": "PDCD2 (programmed cell death 2)", "PubChem SID": "SID134310470", "viability hit class": "no change", "caspase hit class": "no change", "viability robust z-score": -0.4, "caspase robust z-score": -0.06}
{"Target gene": "PTGER1 (prostaglandin E receptor 1)", "PubChem SID": "SID134311142", "viability hit class": "no change", "caspase hit class": "no change", "viability robust z-score": 0.26, "caspase robust z-score": 0.26}
{"Target gene": "SLC16A3", "PubChem SID": "SID152148246", "viability hit class": "no change", "caspase hit class": "no change", "viability robust z-score": 0.12, "caspase robust z-score": 0.16}
{"Target gene": "TUB (TUB bipartite transcription factor)", "PubChem SID": "SID134321321", "viability hit class": "no change", "caspase hit class": "no change", "viability robust z-score": -0.11, "caspase robust z-score": 0.99}
{"Target gene": "CHORDC1 (cysteine and histidine rich domain containing 1)", "PubChem SID": "SID134323746", "viability hit class": "no change", "caspase hit class": "no change", "viability robust z-score": -2.15, "caspase robust z-score": 3.51}
{"Target gene": "SFSWAP (splicing factor SWAP)", "PubChem SID": "SID152152651", "viability hit class": "no change", "caspase hit class": "no change", "viability robust z-score": -2.34, "caspase robust z-score": 3.91}
{"Target gene": "POLD2 (DNA polymerase delta 2, accessory subunit)", "PubChem SID": "SID135623921", "viability hit class": "no change", "caspase hit class": "no change", "viability robust z-score": -0.37, "caspase robust z-score": 1.07}
